Experimental data from patent publication US11850213B2, “Ophthalmic compositions of rifamycins and uses thereof” (AMD THERAPEUTICS LLC, priority 2014, dated 2023).
At least one structure is not confirmed: it was looked up by name or label, or the drawing left a doubt.

Experiments:
[1] = tested on: Oxygen-Induced Retinopathy rat model; test: Oxygen-Induced Retinopathy rat model, capillaries in retina histology sections; format: in vivo, Sprague-Dawley rat
[2] = tested on: VEGF, HGF; settings: cited from earlier work

**Q.** What does the source list for CO[C@H]1/C=C/O[C@@]2(C)Oc3c(C)c(O)c4c(O)c(c(/C=N/N5CCN(C)CC5)c(O)c4c3C2=O)NC(=O)/C(C)=C\C=C\[C@H](C)[C@H](O)[C@@H](C)[C@@H](O)[C@@H](C)[C@H](OC(C)=O)[C@@H]1C [Rifampicin]?
**A.** New capillaries on the retinal surface, histology sections ([1]; SC injection, FIGS. 1E and 1F): small foci of new capillaries on the retinal surface but fewer than in the control group; New capillaries on the retinal surface, histology sections ([1]; topical eye drop formulation, FIGS. 1C and 1D): small foci of new capillaries on the retinal surface but fewer than in the control group; Effect on major neovascularization genes such as VEGF, HGF [2]: strongly inhibited
